Test results published in PubChem BioAssay AID248 (DTP/NCI, 2004).
The list is a part of this screen's results and no random one: it gathers tests that were run many times, whatever their T/C, doses with no T/C, and many T/C values between a quarter and a half above the control. Other doses and runs of a compound stand elsewhere. T/C: endpoint of the treated group in % of that of the vehicle group. Some entries give survivors of the animals treated and no T/C: the source holds a T/C of zero for them, seemingly a mark for toxic or unscored doses. Some survivor counts are full or nearly so, which does not show that the dose was tolerated: survival well below the control is almost never listed, so the zero probably covers shortened survival too. Counts of survivors are from the toxicity check (mostly the fifth day) where no day follows; animals may have died later. Schedule codes are those of the source, taken here to give the interval after Q, in days (D) or hours (H), and the number of doses after X. Some doses were run more than once; the results are listed from low to high. Some schedules carry Z or #; the key to these is not given. Some molecules as drawn cover several salts, stereoisomers or complexes of the source; a dose is that of the sample tested. For survival time, this PubChem deposit counts one and a half times the control or more as active, and values a quarter to a half above the control carry no call in these data; other NCI protocols may use other cut-offs. Some T/C values are followed by the survivors on the day toxicity was checked, most often the fifth; where none is given, no animal had died by that day.

Test system: L1210 leukemia ip in BDF1 mice, survival T/C
Experiment: NCI In Vivo Anticancer Drug Screen. Data for tumor model L1210 Leukemia (intraperitoneal) in B6D2F1 (BDF1) mice
Details: T/C endpoint: mean survival time, higher T/C = longer survival
[1] = dose: 400.0 mg/kg/injection, schedule: Q04DX003 (ip), vehicle: Klucel (hydroxypropylcellulose) (HPC)
[2] = dose: 25.0 mg/kg/injection, schedule: Q01DX009 (ip), vehicle: saline
[3] = dose: 300.0 mg/kg/injection, schedule: Q01DX001 (ip), vehicle: saline
[4] = dose: 200.0 mg/kg/injection, schedule: Q01DX001 (ip), vehicle: saline
[5] = dose: 400.0 mg/kg/injection, schedule: Q01DX001 (ip), vehicle: saline
[6] = dose: 100.0 mg/kg/injection, schedule: Q04DX002 (ip), vehicle: saline with Tween-80
[7] = dose: 200.0 mg/kg/injection, schedule: Q01DX009 (ip), vehicle: saline with Tween-80
[8] = dose: 200.0 mg/kg/injection, schedule: Q04DX002 (ip), vehicle: saline with Tween-80
[9] = dose: 400.0 mg/kg/injection, schedule: Q04DX002 (ip), vehicle: saline with Tween-80
[10] = dose: 400.0 mg/kg/injection, schedule: Q01DX009 (ip), vehicle: saline

With CC(C)CC(CC(C)C)NCCOC(=O)c1ccc(N)cc1 the survivor count (dose: 300.0 mg/kg/injection, schedule: Q01DX001 (ip), vehicle: other) was 1 of 6.

Nc1nc(Cc2cccc3ccccc23)nc(Cc2cccc3ccccc23)n1 was tested, and the survivor count [1] was 6 of 6.

For CCCCOC(OCCCC)C(C)(C)CN(C)C, the survivor count (dose: 100.0 mg/kg/injection, schedule: Q04DX002 (ip), vehicle: saline) was 0 of 3, the survivor count (dose: 200.0 mg/kg/injection, schedule: Q04DX002 (ip), vehicle: saline) was 0 of 3 and the survivor count (dose: 400.0 mg/kg/injection, schedule: Q04DX002 (ip), vehicle: saline) was 0 of 3.

C=C(C)CC(Cc1ccccc1)NCC1CC1 (configuration not stated) was tested, and the survivor count (dose: 100.0 mg/kg/injection, schedule: Q04DX003 (ip), vehicle: Klucel (hydroxypropylcellulose) (HPC)) was 3 of 6, the survivor count (dose: 200.0 mg/kg/injection, schedule: Q04DX003 (ip), vehicle: Klucel (hydroxypropylcellulose) (HPC)) was 0 of 6 and the survivor count [1] was 0 of 6.

With CC1CN1C(=O)Nc1ccc(Cl)cc1 (configuration not stated) the survivor count (dose: 200.0 mg/kg/injection, schedule: Q04DX002 (ip), vehicle: other) was 1 of 3 and the survivor count (dose: 400.0 mg/kg/injection, schedule: Q04DX002 (ip), vehicle: other) was 0 of 3.

With O=C(O)c1cc[c]([Hg][S]c2ncnc3nc[nH]c23)cc1 the T/C (dose: 12.5 mg/kg/injection, schedule: Q01DX015 (ip), vehicle: saline) was 134 % of control, the T/C [2] was 136 % of control and the T/C (dose: 37.5 mg/kg/injection, schedule: Q01DX009 (ip), vehicle: saline) was 138 % of control [4 of 5 alive]. For the same compound, the survivor count (dose: 50.0 mg/kg/injection, schedule: Q01DX015 (ip), vehicle: saline) was 0 of 6, the T/C (dose: 50.0 mg/kg/injection, schedule: Q01DX Z (ip), vehicle: carboxymethylcellulose (CMC)) was 132 % of control and the survivor count (dose: 75.0 mg/kg/injection, schedule: Q01DX001 (ip), vehicle: saline) was 3 of 6. The survivor count (dose: 100.0 mg/kg/injection, schedule: Q01DX015 (ip), vehicle: saline) was 0 of 6, the survivor count (dose: 150.0 mg/kg/injection, schedule: Q01DX001 (ip), vehicle: saline) was 0 of 6 and the survivor count (dose: 200.0 mg/kg/injection, schedule: Q01DX Z (ip), vehicle: carboxymethylcellulose (CMC)) was 0 of 6. For the same compound, the survivor count [3] was 0 of 6.

For N=C(N)SC(c1ccccc1)c1ccccc1, the survivor count (dose: 100.0 mg/kg/injection, schedule: Q01DX001 (ip), vehicle: Klucel (hydroxypropylcellulose) (HPC)) was 1 of 3, the survivor count (dose: 200.0 mg/kg/injection, schedule: Q01DX001 (ip), vehicle: Klucel (hydroxypropylcellulose) (HPC)) was 0 of 3 and the survivor count [4] was 0 of 6. The survivor count (dose: 400.0 mg/kg/injection, schedule: Q01DX001 (ip), vehicle: Klucel (hydroxypropylcellulose) (HPC)) was 0 of 3 and the survivor count [5] was 0 of 6.

For CN1CC2CCCCC1C2OC(=O)C(c1ccccc1)c1ccccc1 (configuration not stated), the survivor count [3] was 0 of 6.

O=C1CC(c2ccccc2)NN1c1ccccc1 (configuration not stated) was tested, and the survivor count [6] was 3 of 3, the survivor count [7] was 5 of 6 and 3 of 3 and the survivor count [8] was 3 of 3. For the same compound, the survivor count [9] was 3 of 3.

In the case of S=P(NCCNP(=S)(N1CC1)N1CC1)(N1CC1)N1CC1, the T/C [2] is reported as 127 % of control [5 of 6 alive], the T/C (dose: 50.0 mg/kg/injection, schedule: Q01DX009 (ip), vehicle: saline) is reported as 130 % of control and the survivor count (dose: 100.0 mg/kg/injection, schedule: Q01DX009 (ip), vehicle: Klucel (hydroxypropylcellulose) (HPC)) is reported as 6 of 6. For the same compound, the survivor count (dose: 200.0 mg/kg/injection, schedule: Q01DX009 (ip), vehicle: saline) was 2 of 6 and the survivor count [10] was 0 of 6.

In the case of O=C(O)C(Br)CBr (configuration not stated), the survivor count (dose: 50.0 mg/kg/injection, schedule: Q01DX001 (ip), vehicle: saline) is reported as 4 of 4, the survivor count [4] is reported as 1 of 4 and the survivor count [5] is reported as 0 of 4.

For CC[N+](C)(CC)CCOC(=O)c1ccccc1Oc1ccc(C)cc1, the survivor count (dose: 200.0 mg/kg/injection, schedule: Q04DX003 (ip), vehicle: saline) was 3 of 6 and the survivor count (dose: 400.0 mg/kg/injection, schedule: Q04DX003 (ip), vehicle: saline) was 2 of 6.

In the case of [F][Sn]([c]1ccc(Cl)cc1)([c]1ccc(Cl)cc1)[c]1ccc(Cl)cc1, the survivor count (dose: 1.5 mg/kg/injection, schedule: Q04DX003 (ip), vehicle: other) is reported as 4 of 6, the survivor count (dose: 3.0 mg/kg/injection, schedule: Q04DX003 (ip), vehicle: other) is reported as 3 of 6 and the survivor count (dose: 6.0 mg/kg/injection, schedule: Q04DX003 (ip), vehicle: other) is reported as 2 of 6. The survivor count (dose: 12.5 mg/kg/injection, schedule: Q04DX003 (ip), vehicle: other) was 1 of 6, the survivor count (dose: 25.0 mg/kg/injection, schedule: Q04DX003 (ip), vehicle: other) was 0 of 6 and the survivor count (dose: 50.0 mg/kg/injection, schedule: Q04DX003 (ip), vehicle: other) was 0 of 6. The survivor count (dose: 100.0 mg/kg/injection, schedule: Q04DX003 (ip), vehicle: other) was 0 of 6, the survivor count (dose: 200.0 mg/kg/injection, schedule: Q04DX003 (ip), vehicle: other) was 0 of 6 and the survivor count (dose: 400.0 mg/kg/injection, schedule: Q04DX003 (ip), vehicle: other) was 0 of 6.

For CNC(=O)Nc1ncnn1Cc1ccccc1, the survivor count [10] was 6 of 6.

Nc1cnccc1N1CCN(c2cccc3ccccc23)CC1 was tested, and the survivor count (dose: 100.0 mg/kg/injection, schedule: Q01DX009 (ip), vehicle: saline with Tween-80) was 6 of 6, the survivor count [7] was 1 of 6 and the survivor count (dose: 400.0 mg/kg/injection, schedule: Q01DX009 (ip), vehicle: saline with Tween-80) was 0 of 6.

In the case of c1ccc(CSc2ncnc3nncnc23)cc1, the survivor count (dose: 400.0 mg/kg/injection, schedule: Q01DX001 (ip), vehicle: other) is reported as 0 of 4.

In the case of O=C1C=C(Nc2ccc(Cl)cc2)C(=O)c2ccccc21, the survivor count (dose: 150.0 mg/kg/injection, schedule: Q01DX001 (ip), vehicle: carboxymethylcellulose (CMC)) is reported as 6 of 6.

In the case of Nc1ccc2c(c1)C(=O)c1c(C(=O)O)cccc1-2, the survivor count (dose: 300.0 mg/kg/injection, schedule: Q01DX001 (ip), vehicle: carboxymethylcellulose (CMC)) is reported as 0 of 6.

COc1ccc(OC)c2c(=O)cc[nH]c12 was tested, and the survivor count (dose: 400.0 mg/kg/injection, schedule: Q01DX001 (ip), vehicle: carboxymethylcellulose (CMC)) was 2 of 6.

In the case of C=CCC(Cc1ccccc1)NCC1CC1 (configuration not stated), the survivor count [6] is reported as 0 of 3, the survivor count [8] is reported as 0 of 3 and the survivor count [9] is reported as 0 of 3.

With C#CC(C)(C)OCC(O)CCl (configuration not stated) the survivor count [10] was 6 of 6.

With CCCCN1C(=O)C2CC=C3C=CN4C(C3C2C1=O)C1C(=O)N(CCCC)C(=O)C1C41CC(=O)N(CCCC)C1=O (configuration not stated) the survivor count (dose: 400.0 mg/kg/injection, schedule: Q01DX009 (ip), vehicle: Klucel (hydroxypropylcellulose) (HPC)) was 6 of 6.
